Record: PubChem BioAssay AID1508597 (Cure First, 2020)
Screen: 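Genes whose silencing sensitises or protects ovarian cancer cells against rucaparib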 (primary screen). Cell system: human ovarian carcinoma lines grown from tumours: OCI-P5x (papillary serous) and OCI-C5x (clear cell). Reagent: siRNA pool against human genes, 1.25 pmol siRNA per well. Timing: 72 h or 96 h, depending on the cell culture. Conditions: rucaparib 20 µM (about IC30) or vehicle, present until read-out. Rucaparib or vehicle: Rucaparib. Cell line: OCI-P5x (serous). Measurement: 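ATP luminescence measured at 72 or 96 h according to the culture, then normalised and expressed as percent viability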. Direction: viability, normalised: higher = more viable cells remaining. Rule for the call: 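Active when normalised viability falls below 80 percent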. Calls: active = viability under 80%; inactive = viability 80% or more.
Shown is a random part of the about 2,100 reagents, under one of the conditions tested. 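Calls flag viability under 80% in either arm, not effects specific to rucaparib; the reference for percent is not stated.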 Entries without a mark were called inactive. Not stated in the record: the 100% reference.

NEK7, technical replicate 1
- viability, normalised (%): 87.1

NEK7, technical replicate 2
- viability, normalised (%): 92.6

NEK7, technical replicate 3
- viability, normalised (%): 75.1 (active)

GUCY2D, technical replicate 1
- viability, normalised (%): 68 (active)

GUCY2D, technical replicate 2
- viability, normalised (%): 92.7

GUCY2D, technical replicate 3
- viability, normalised (%): 62.3 (active)

RASSF7, technical replicate 1
- viability, normalised (%): 69.6 (active)

RASSF7, technical replicate 2
- viability, normalised (%): 94

RASSF7, technical replicate 3
- viability, normalised (%): 88.9

AKT2, technical replicate 1
- viability, normalised (%): 92.8

AKT2, technical replicate 2
- viability, normalised (%): 97.1

AKT2, technical replicate 3
- viability, normalised (%): 86.4

Reagents listed above with an active call (4):
NEK7, technical replicate 3
- viability, normalised (%): 75.1 (active)

GUCY2D, technical replicate 1
- viability, normalised (%): 68 (active)

GUCY2D, technical replicate 3
- viability, normalised (%): 62.3 (active)

RASSF7, technical replicate 1
- viability, normalised (%): 69.6 (active)

More entries follow.
POLR1C, technical replicate 1
- viability, normalised (%): 125

POLR1C, technical replicate 2
- viability, normalised (%): 73 (active)

POLR1C, technical replicate 3
- viability, normalised (%): 115

PI4K2B, technical replicate 1
- viability, normalised (%): 78 (active)

PI4K2B, technical replicate 2
- viability, normalised (%): 89.8

PI4K2B, technical replicate 3
- viability, normalised (%): 66.3 (active)

ZNF541, technical replicate 1
- viability, normalised (%): 54.4 (active)

ZNF541, technical replicate 2
- viability, normalised (%): 41.1 (active)

ZNF541, technical replicate 3
- viability, normalised (%): 46 (active)
